Data from PubChem BioAssay (Tox21).
These results got no clear call from the source, so the numbers are uncertain. The call rests on the fitted dose curve.

Amino acid sequences for entries named in this document (tags omitted).
UniProt P14416, whole entry: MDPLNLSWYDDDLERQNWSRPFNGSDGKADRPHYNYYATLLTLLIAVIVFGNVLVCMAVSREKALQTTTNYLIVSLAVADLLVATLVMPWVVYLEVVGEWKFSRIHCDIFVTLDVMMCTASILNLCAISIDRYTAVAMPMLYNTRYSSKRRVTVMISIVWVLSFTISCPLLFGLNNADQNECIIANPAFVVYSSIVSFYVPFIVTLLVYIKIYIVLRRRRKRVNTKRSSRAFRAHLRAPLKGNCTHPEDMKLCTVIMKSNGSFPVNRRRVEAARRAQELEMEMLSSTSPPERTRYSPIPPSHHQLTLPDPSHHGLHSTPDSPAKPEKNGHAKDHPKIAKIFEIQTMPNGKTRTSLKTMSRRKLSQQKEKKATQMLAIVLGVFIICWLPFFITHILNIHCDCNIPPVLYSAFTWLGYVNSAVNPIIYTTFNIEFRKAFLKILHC

What follows are molecules tested against D(2) dopamine receptor (Homo sapiens) (UniProt P14416) (assay: Dopamine D2 receptor (DRD2) small molecule agonists, cell-based qHTS assay (AID 1963594; further: nearly all actives have a fitted effect of over 35% in size)). Conditions: HEK293-DRD2 cAMP HTRF, agonist mode, 30 min; activation: at 42.5 µM (top of the series).
Excerpt: National Center for Advancing Translational Sciences [NCATS]
Division of Preclinical Innovation [DPI]
U.S. Environmental Protection Agency [EPA]
National Institutes of Environmental Health Sciences [NIEHS]
National Toxicology Program [NTP]
U.S. Food and Drug Administration [FDA]
DRD2 is the D2 subtype of the dopamine receptor, which is coupled to Gi subtype of G protein-coupled receptor. This G protein-coupled receptor inhibits adenylyl cyclase activity. The DRD2-HEK293 cell line stably expressing D2 dopamine receptor can be used for screening agonists and antagonists of interactions between D2 and its ligands. The Hek293-DRD2 cAMP assay is based on HTRF technology. It measures changes of cAMP accumulation in response to Gi coupled GPCR activation or inhibition.
Tox21 Assay Protocol Summary:
DRD2-Hek293 cells were dispensed at 600 cells/3uL/well in 1536-well white plates using a Multidrop Dispenser. After the assay plates were incubated at a 37 C/5% CO2 incubator for 24 h, 1 uL of Ro20-1724 at final concentration of 0.1 mM was transferred to the assay plate by a Flying Reagent Dispenser. Following Ro20-1724 addition, 23 nL of compound dissolved in DMSO, positive controls or DMSO only was added to the assay plates via Wako pintool station. The assay plates were incubated at room temperature for 10 min. Next, 1 uL of NKH477 at 200nM was added into the plates. After the assay plates were incubated at room temperature for an additional 30 min, 2.5 ul/well of cAMP-d2 and 2.5 ul/well of anti-cAMP-cryptate were added respectively into the assay plates using a Flying Reagent Dispenser. The plates were incubated at room temperature for 1 h. The fluorescence intensity in the plates was measured at 340 nm excitation and 665 & 620 nm emission by an Envision plate reader.
On the % scale 0 is the no-effect control and ±100 the full control effect; potency means the concentration at half of the fitted maximal effect.

Structure (SMILES)	Potency	activation
Cc1ccc([N+](=O)[O-])cc1[N+](=O)[O-]	inconclusive: 53.7 µM	–
Cc1cccc([N+](=O)[O-])c1[N+](=O)[O-]	–	inconclusive: -5.95%
Nc1cc([N+](=O)[O-])cc([N+](=O)[O-])c1O	inconclusive: 0.296 µM	–
